According to the supplement of paper PMC10849652:
This is one part of the list.

Protein sequences, listed by entry. Tags and fused reporters are not part of them. Lines headed by an entry give the natural chain unless they say otherwise; changes in a name come on top.
UniProt P51808: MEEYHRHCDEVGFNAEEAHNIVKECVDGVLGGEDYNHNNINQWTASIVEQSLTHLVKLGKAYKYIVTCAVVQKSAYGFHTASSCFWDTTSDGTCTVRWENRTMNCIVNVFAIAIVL
UniProt Q16610: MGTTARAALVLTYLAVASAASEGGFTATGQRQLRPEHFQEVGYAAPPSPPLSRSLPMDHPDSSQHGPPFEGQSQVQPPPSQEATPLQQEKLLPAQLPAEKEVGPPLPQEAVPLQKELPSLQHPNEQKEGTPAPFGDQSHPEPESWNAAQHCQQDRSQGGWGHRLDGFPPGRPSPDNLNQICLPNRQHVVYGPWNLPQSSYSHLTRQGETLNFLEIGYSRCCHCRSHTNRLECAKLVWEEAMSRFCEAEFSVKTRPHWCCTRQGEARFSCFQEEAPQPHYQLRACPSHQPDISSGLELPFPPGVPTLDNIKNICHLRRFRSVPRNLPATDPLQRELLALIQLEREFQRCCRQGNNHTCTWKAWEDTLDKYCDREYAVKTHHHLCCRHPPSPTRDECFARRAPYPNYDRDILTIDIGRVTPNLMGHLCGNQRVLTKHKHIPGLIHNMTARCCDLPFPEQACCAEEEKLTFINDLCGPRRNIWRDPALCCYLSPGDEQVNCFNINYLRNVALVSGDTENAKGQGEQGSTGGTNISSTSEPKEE
UniProt Q7RTS9: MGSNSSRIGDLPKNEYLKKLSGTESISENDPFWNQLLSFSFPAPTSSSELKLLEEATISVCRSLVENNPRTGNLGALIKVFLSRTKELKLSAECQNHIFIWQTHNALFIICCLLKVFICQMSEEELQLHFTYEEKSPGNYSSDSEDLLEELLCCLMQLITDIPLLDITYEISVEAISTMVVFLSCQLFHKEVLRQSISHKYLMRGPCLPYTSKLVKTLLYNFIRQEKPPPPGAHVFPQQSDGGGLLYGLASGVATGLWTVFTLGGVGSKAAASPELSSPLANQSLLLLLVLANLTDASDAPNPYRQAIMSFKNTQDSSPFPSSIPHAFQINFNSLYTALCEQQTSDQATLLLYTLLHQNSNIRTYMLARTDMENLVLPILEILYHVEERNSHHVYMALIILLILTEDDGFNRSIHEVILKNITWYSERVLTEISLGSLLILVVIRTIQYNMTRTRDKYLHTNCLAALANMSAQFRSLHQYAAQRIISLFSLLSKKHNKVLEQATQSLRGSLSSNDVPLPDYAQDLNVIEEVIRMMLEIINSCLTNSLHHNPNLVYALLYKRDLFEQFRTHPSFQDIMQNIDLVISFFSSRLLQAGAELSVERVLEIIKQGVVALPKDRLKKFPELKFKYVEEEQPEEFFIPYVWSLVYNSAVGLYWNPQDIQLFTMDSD
UniProt Q96DC8: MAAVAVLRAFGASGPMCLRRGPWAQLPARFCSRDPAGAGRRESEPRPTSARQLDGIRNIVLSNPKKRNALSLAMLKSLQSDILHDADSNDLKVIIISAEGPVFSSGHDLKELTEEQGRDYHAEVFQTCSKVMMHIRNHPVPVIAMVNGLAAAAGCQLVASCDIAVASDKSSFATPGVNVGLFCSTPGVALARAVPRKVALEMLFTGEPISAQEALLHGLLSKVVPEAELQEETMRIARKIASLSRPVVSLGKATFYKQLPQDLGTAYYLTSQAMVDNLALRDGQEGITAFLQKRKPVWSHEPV
UniProt Q6UX65: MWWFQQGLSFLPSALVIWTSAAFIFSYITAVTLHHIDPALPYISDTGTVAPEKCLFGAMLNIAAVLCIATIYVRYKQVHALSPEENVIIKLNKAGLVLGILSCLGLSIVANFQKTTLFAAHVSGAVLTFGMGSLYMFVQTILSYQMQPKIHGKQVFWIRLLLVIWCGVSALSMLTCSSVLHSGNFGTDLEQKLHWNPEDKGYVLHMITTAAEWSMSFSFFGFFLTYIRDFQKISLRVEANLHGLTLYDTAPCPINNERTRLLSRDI
UniProt Q9NNZ3: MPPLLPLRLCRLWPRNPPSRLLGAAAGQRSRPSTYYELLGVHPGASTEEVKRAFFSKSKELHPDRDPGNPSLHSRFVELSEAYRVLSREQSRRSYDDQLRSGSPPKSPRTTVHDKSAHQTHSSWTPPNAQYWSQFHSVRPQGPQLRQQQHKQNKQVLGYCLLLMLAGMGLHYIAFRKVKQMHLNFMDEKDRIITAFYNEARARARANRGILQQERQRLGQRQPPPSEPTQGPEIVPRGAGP
UniProt Q86YN1: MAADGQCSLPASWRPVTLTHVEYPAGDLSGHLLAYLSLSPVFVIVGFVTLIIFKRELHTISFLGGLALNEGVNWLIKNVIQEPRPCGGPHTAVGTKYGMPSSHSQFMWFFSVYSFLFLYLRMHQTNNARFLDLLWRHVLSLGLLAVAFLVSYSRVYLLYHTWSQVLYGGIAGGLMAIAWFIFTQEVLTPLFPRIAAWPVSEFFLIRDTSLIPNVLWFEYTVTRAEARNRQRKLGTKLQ
UniProt Q9UBS3: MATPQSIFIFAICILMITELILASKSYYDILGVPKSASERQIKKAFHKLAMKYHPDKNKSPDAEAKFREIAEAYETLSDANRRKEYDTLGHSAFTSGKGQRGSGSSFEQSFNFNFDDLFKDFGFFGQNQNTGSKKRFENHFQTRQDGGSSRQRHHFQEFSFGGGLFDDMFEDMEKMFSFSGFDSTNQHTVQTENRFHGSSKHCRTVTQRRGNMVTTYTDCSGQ
UniProt Q13409, whole entry, looked up: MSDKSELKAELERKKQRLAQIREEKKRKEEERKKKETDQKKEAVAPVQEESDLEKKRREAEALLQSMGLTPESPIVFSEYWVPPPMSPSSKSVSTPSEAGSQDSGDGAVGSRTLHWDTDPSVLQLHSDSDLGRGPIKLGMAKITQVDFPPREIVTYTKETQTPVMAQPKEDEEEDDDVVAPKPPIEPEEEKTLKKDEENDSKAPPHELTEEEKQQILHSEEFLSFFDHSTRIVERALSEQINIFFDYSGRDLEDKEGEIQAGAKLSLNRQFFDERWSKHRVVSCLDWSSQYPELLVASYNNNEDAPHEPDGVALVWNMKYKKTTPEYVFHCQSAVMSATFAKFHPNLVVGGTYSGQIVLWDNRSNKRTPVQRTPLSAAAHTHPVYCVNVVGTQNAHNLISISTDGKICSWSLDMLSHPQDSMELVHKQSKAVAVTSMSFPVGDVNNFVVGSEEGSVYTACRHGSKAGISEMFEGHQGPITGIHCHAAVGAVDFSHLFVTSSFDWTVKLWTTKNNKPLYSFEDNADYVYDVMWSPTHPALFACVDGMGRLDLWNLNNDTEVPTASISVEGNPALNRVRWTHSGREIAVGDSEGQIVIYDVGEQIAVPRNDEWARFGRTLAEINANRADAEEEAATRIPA
UniProt Q05193: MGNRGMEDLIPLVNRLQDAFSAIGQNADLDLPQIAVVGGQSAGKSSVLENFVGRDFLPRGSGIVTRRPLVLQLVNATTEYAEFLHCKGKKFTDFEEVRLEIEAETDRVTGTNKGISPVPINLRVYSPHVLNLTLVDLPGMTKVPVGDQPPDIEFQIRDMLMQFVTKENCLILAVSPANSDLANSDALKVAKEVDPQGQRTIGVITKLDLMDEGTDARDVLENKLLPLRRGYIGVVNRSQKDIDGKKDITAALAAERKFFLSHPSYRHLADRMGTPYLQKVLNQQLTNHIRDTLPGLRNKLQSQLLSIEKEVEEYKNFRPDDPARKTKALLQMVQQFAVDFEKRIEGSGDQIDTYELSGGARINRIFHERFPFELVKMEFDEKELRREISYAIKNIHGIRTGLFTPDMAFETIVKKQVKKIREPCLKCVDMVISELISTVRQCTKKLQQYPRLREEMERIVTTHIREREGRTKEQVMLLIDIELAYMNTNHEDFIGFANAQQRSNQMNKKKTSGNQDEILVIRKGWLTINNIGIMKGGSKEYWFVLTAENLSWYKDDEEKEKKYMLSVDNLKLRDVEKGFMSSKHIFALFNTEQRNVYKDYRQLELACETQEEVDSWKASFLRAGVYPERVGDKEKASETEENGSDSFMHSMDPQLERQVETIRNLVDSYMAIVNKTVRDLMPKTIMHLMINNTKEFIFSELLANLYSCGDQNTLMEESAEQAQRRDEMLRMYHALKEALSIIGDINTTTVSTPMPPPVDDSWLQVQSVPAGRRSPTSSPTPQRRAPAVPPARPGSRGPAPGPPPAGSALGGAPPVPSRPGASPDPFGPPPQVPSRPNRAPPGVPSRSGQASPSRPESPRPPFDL
UniProt O75923: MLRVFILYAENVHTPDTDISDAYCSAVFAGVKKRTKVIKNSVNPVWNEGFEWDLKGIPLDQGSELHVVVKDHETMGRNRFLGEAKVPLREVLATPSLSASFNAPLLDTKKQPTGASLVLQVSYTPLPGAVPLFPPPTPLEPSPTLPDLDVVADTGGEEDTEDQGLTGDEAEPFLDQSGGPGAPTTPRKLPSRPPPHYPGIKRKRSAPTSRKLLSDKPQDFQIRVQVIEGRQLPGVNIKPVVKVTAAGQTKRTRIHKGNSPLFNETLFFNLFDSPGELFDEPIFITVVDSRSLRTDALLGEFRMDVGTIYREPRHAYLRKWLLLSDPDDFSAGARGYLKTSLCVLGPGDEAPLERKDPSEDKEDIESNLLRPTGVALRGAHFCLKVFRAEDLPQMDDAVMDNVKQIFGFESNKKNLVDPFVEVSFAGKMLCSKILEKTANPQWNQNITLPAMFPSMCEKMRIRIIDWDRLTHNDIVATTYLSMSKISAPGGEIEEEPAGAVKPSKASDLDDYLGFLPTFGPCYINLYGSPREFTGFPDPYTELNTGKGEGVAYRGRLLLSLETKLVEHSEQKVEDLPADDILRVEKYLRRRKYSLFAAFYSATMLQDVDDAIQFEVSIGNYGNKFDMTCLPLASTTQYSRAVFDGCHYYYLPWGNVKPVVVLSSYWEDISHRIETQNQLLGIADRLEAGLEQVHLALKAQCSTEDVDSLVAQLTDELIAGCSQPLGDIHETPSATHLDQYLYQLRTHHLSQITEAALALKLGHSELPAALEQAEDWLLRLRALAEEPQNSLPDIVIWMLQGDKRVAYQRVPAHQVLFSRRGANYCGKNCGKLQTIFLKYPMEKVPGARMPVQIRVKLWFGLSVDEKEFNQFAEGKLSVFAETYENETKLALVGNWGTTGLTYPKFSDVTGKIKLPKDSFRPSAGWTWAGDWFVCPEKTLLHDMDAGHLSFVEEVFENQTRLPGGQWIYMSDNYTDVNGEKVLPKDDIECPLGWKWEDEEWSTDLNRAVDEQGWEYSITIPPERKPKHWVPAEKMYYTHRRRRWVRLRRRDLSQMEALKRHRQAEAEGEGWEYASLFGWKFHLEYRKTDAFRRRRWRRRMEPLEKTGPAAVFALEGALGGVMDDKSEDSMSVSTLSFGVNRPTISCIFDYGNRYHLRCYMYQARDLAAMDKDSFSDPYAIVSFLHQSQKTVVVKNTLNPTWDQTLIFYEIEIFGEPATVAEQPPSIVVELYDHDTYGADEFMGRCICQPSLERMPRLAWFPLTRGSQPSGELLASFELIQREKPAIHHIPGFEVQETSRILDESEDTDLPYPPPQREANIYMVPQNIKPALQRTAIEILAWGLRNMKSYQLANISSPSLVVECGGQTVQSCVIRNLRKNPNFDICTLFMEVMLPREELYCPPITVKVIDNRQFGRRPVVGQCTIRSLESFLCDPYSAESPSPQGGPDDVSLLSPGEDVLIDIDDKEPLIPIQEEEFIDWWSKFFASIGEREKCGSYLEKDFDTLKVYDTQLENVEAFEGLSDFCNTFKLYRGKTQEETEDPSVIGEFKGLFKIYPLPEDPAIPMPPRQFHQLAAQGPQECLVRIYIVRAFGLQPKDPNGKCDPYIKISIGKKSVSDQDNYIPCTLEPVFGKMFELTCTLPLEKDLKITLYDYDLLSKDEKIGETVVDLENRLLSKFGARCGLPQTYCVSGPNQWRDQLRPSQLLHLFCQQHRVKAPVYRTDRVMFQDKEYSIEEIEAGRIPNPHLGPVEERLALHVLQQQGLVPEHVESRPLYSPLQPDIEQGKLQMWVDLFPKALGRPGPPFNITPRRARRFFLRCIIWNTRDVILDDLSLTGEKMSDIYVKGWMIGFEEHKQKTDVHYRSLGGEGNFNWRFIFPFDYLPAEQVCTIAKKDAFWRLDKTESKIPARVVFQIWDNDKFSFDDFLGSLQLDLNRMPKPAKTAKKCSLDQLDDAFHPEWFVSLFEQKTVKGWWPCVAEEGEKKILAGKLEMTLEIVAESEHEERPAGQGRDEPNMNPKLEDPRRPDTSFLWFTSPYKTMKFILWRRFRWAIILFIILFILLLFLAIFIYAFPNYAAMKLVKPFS
UniProt Q8WTR2: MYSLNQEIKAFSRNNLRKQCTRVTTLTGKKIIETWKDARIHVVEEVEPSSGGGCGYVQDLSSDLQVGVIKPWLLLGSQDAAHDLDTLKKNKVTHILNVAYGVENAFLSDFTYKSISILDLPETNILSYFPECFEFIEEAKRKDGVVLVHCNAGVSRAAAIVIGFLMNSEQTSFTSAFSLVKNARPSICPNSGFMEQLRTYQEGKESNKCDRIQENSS

Tests used:
Assay in all cases: log2 fold change, soluble protein after heating vs DMSO (PISA); higher = thermal stabilisation; K562 cells, 10 uM, 30 min; active = over 0.2 and 3.5 SD of the protein, either way, in both replicates (recomputed)
[1] = compound: CN1CCc2c(c3ccccc3n2Cc2ccc(C(=O)NO)cc2)C1 [Tubastatin A]
How it was run: (§1)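 K562 cells at 2×10^6 cells/mL were treated with 10 μM compound for 30 min. Aliquots were heated for 3 min across 48°C-58°C, pooled, and extracted in PBS with 0.5% NP-40 at 4°C; soluble protein was the supernatant after 21,000xg for 90 min. Soluble protein was quantified by TMTpro 16plex LC-MS/MS with channel sums equalised, and reported as log2 fold change in thermal stability against DMSO controls, with values from duplicates.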

[2] = compound: CNC(=O)c1ccc(Nc2ncc(C(F)(F)F)c(NCc3nccnc3N(C)S(C)(=O)=O)n2)cc1 [defactinib]
How it was run: as §1

[3] = compound: COC(=O)[C@H](CCSC)NC(=O)C1=C(C=C(C=C1)NC[C@H](CS)N)C2=CC=CC=C2
How it was run: as §1

[4] = compound: CO[C@H]1C[C@@H]2CC[C@@H](C)[C@@](O)(O2)C(=O)C(=O)N2CCCC[C@H]2C(=O)O[C@H]([C@H](C)C[C@@H]2CC[C@H](n3cnnn3)[C@H](OC)C2)CC(=O)[C@H](C)/C=C(\C)[C@@H](O)[C@@H](OC)C(=O)[C@H](C)C[C@H](C)/C=C/C=C/C=C/1C [zotarolimus]
How it was run: as §1

[5] = compound: CNCc1ccc(-c2[nH]c3cc(F)cc4c3c2CCNC4=O)cc1 [rucaparib]
How it was run: as §1

[6] = compound: COC(=O)N[C@@H](C)CNc1nccc(-c2cn(C(C)C)nc2-c2cc(Cl)cc(NS(C)(=O)=O)c2F)n1 [encorafenib]
How it was run: as §1

[7] = compound: COC1=CC=C(C=C1)CN2C=CC3=C2C=C(C=C3)C(=O)NO
How it was run: as §1

[8] = compound: COc1cc(C(=O)O)ccc1NC(=O)[C@@H]1N[C@@H](CC(C)(C)C)[C@](C#N)(c2ccc(Cl)cc2F)[C@H]1c1cccc(Cl)c1F [idasanutlin]
How it was run: as §1

[9] = compound: COc1cc(Nc2ncc3c(n2)-c2ccc(Cl)cc2C(c2c(F)cccc2OC)=NC3)ccc1C(=O)O [alisertib]
How it was run: as §1

[10] = compound: COc1cc2ncnc(Nc3ccc(F)c(Cl)c3)c2cc1OCCCN1CCOCC1 [gefitinib]
How it was run: as §1

[11] = compound: COc1cccc2cc(-c3nc([C@H]4CC[C@H](C(=O)O)CC4)n4ncnc(N)c34)[nH]c12
How it was run: as §1

[12] = compound: CS(=O)(=O)N1CCN(Cc2cc3nc(-c4cccc5[nH]ncc45)nc(N4CCOCC4)c3s2)CC1 [pictilisib]
How it was run: as §1

[13] = compound: CN1CCN(c2nc(C3=C(c4c[nH]c5ccccc45)C(=O)NC3=O)c3ccccc3n2)CC1 [sotrastaurin]
How it was run: as §1

[14] = compound: CON(C)C(=O)N1N=C(c2cc(F)ccc2F)S[C@@]1(CCCN)c1ccccc1 [filanesib]
How it was run: as §1

[15] = compound: CN1CC[C@H](c2c(O)cc(O)c3c(=O)cc(-c4ccccc4Cl)oc23)[C@H](O)C1 [alvocidib]
How it was run: as §1

[16] = compound: CNC(=O)C1=CC=CC=C1NC2=NC(=NC=C2Cl)NC3=C(C=C(C=C3)N4CCOCC4)OC
How it was run: as §1

[17] = compound: COc1cc2nc(-c3cc(F)ccc3O)nc(N[C@@H]3CNC[C@H]3C(C)(C)O)c2cc1OC
How it was run: as §1

[18] = compound: CS(=O)(=O)CCNCc1ccc(-c2ccc3ncnc(Nc4ccc(OCc5cccc(F)c5)c(Cl)c4)c3c2)o1 [lapatinib]
How it was run: as §1

Measured: log2 fold change

DNAJB1 (UniProt M0R128)
inactive: [1] -0.058 | [2] -0.073 | [3] 0.18 | [4] -0.062

DPY19L2 (UniProt Q6NUT2)
inactive: [1] -0.049 | [2] 0.056 | [5] -0.132 | [6] 0.054 | [3] -0.007 | [7] -0.152 | [8] 0.081 | [9] -0.364 | [10] 0.017 | [11] -0.085 | [12] -0.027

DUSP12 (UniProt V9GYV5)
inactive: [13] 0.13 | [2] -0.076 | [3] 0.119 | [7] -0.063 | [14] -0.115

DYNLT3 (UniProt P51808)
inactive: [15] 0.087 | [5] -0.001 | [6] -0.074 | [4] 0.041 | [8] 0.044 | [10] 0.004

DOCK11, A0A0J9YW64
inactive: [13] 0.065 | [5] 0.229 | [6] 0.112 | [7] -0.156 | [14] -0.08 | [9] -0.012 | [11] -0.018

DOLK (UniProt Q9UPQ8)
inactive: [13] -0.111 | [15] 0.095 | [16] 0.02 | [14] -0.118 | [4] -0.003 | [8] -0.127 | [10] -0.027

ECM1 isoform 2 (UniProt Q16610)
inactive: [1] 0.163 | [2] 0.085 | [3] -0.081 | [8] 0.073 | [9] 0.889 | [10] -0.012 | [11] -0.073

2 neighbouring entries already listed:
DOLK (UniProt Q9UPQ8)
inactive: [13] -0.111 | [15] 0.095 | [16] 0.02 | [14] -0.118 | [4] -0.003 | [8] -0.127 | [10] -0.027

ECM1 isoform 2 (UniProt Q16610)
inactive: [1] 0.163 | [2] 0.085 | [3] -0.081 | [8] 0.073 | [9] 0.889 | [10] -0.012 | [11] -0.073

Continued:

DYNC1I1 (UniProt O14576)
inactive: [2] -0.076 | [3] 0.136 | [17] -0.075 | [18] 0.172

DYM (UniProt Q7RTS9)
inactive: [13] 0.054 | [15] 0.113 | [1] -0.061 | [16] -0.048 | [2] -0.235 | [5] 0.301 | [6] 0.086 | [3] -0.117 | [7] -0.03 | [14] 0.01 | [4] 0.136 | [9] -0.232 | [17] -0.01 | [10] 0.036 | [11] 0.075 | [18] 0.037 | [12] 0.003

ECHDC3 (UniProt Q96DC8)
inactive: [13] -0.138 | [1] -0.008 | [16] 0.037 | [2] -0.022 | [5] -0.043 | [6] -0.11 | [3] -0.118 | [7] -0.204 | [14] 0.025 | [9] 0.143 | [10] 0.178 | [11] -0.204 | [12] 0.088

DRAM2 (UniProt Q6UX65)
inactive: [13] 0.063 | [15] 0.024 | [1] -0.146 | [2] -0.07 | [5] -0.159 | [6] 0.103 | [3] 0.129 | [7] -0.019 | [14] -0.033 | [4] -0.038 | [8] 0.138 | [9] 0.21 | [17] -0.051 | [11] 0.148 | [18] -0.088

DOP1B (UniProt Q9Y3R5)
inactive: [13] 0.317 | [15] 0.035 | [1] -0.004 | [2] 0.048 | [5] -0.27 | [6] -0.095 | [3] 0.274 | [7] -0.057 | [14] 0.215 | [4] -0.094 | [9] -0.144 | [10] 0.005 | [11] 0.03 | [12] 0.287

DRAP1 (UniProt E9PQX9)
inactive: [1] 0.195 | [16] -0.174 | [8] 0.123 | [9] 0.175 | [17] 0.263 | [11] 0.092 | [18] -0.071

DUS1L (UniProt Q6P1R4)
inactive: [15] 0.11 | [1] -0.004 | [16] 0.084 | [4] 0.084 | [9] 1.02 | [11] 0.129 | [12] 0.039

DNAJC4 (UniProt Q9NNZ3)
inactive: [17] -0.302 | [18] -0.172

DOLPP1 (UniProt Q86YN1)
inactive: [1] -0.066 | [16] 0.012 | [2] -0.134 | [5] 0.087 | [6] -0.057 | [3] 0.156 | [7] -0.05 | [4] -0.003 | [8] -0.043 | [9] -0.022 | [17] 0.129 | [10] 0.013 | [11] 0.011 | [18] -0.07

DNAJB9 (UniProt Q9UBS3)
inactive: [16] 0.088 | [12] -0.165

DOP1A (UniProt Q5JWR5)
inactive: [16] -0.052 | [2] 0.164 | [3] -0.083 | [9] -0.013 | [11] 0.02

DVL2 (UniProt O14641)
inactive: [13] -0.341 | [5] -0.119 | [6] 0.059 | [14] 0.375 | [8] 0.099 | [17] 0.292 | [18] -0.313 | [12] -0.378

DYNC1I2 isoform 2 (UniProt Q13409)
inactive: [13] 0.062 | [1] -0.028 | [16] -0.021 | [5] -0.034 | [6] -0.108 | [7] 0.093 | [14] 0.203 | [4] -0.085 | [8] 0.201 | [9] 0.066 | [17] 0.06 | [11] 0.051 | [18] -0.002

DNM1 (UniProt Q05193)
inactive: [16] -0.035 | [2] -0.037 | [3] -0.035 | [12] 0.091

DYSF isoform 13 (UniProt O75923)
inactive: [13] 0.253 | [1] -0.148 | [16] 0.009 | [2] 0.03 | [5] 0.125 | [6] -0.066 | [3] 0.264 | [7] 0.033 | [14] 0.015 | [8] 0.049 | [9] -0.268 | [10] -0.193 | [11] 0.056 | [12] 0.052

DNAJC14 (UniProt Q6Y2X3)
inactive: [9] 0.045 | [11] -0.165

DYNC2LI1 isoform 2 (UniProt Q8TCX1)
inactive: [13] -0.081 | [15] 0.107 | [16] 0.041 | [2] 0.094 | [3] 0.015 | [14] 0.01 | [4] -0.062 | [9] 0.001 | [17] 0.094 | [11] 0 | [18] 0.027

E2F3 (UniProt O00716)
inactive: [13] -0.06 | [15] -0.04 | [1] 0.02 | [16] 0.092 | [2] -0.024 | [5] -0.05 | [6] 0.043 | [3] 0.087 | [7] -0.053 | [14] -0.022 | [4] 0.021 | [9] -0.068 | [10] -0.022 | [11] 0.18 | [12] 0.041

DUSP19 (UniProt Q8WTR2)
inactive: [16] 0.086

DROSHA (UniProt Q9NRR4)
inactive: [15] 0.047 | [1] 0.002 | [4] 0.16 | [8] -0.005
